Results reported in paper PMC12040169 (PLOS Biology, 2025).
Some of the results follow.

Each molecule was assayed on T1, CTL2-GFP (C. trachomatis L2/434/Bu, GFP-expressing). Conditions: bulk GFP, single well; 28.5 h, 10 µM; inhibitor.
T1 construct: L2/434/Bu, GFP-expressing
Set-up: species or system HeLa; Intracellular C. trachomatis growth in HeLa cells, bulk GFP fluorescence relative to DMSO

SMILES | % of control remaining
CN(CCCNC(=O)c1ncoc1-c1cccs1)c1ccccc1 [CBK282248] | 103.713%
COc1cc2c(cc1OC)C1c3ccccc3NC(c3ccc(F)cc3)N1CC2 (centres unmarked) [CBK286191] | 105.202%
O=C(NCc1cccnc1)N1CCCC(CO)C1 (centres unmarked) [CBK156037] | 127.535%
Cc1cc(-c2cnc(N)nc2)cc(C2CCCN(S(=O)(=O)c3ccc(F)c(C)c3)C2)n1 (centres unmarked) [CBK285934] | 115.701%
COc1ccc(CN(C)c2c(C)nc3c(OCC(=O)N4CCOCC4)cccn23)cc1 [CBK147469] | 113.174%
O=C(CCn1cnnn1)Nc1cc(C(F)(F)F)ccc1Cl [CBK270127] | 142.556%
CCOc1ccc(CNc2ccc(CNc3ncn[nH]3)cc2)cc1 [CBK267617] | 114.823%
Cc1cc(=O)[nH]c(-n2nc(C)cc2NC(=O)c2ccccc2C)n1 [CBK287654] | 163.889%
CCCC(=O)Nc1ccc(OCc2cnccn2)c(C(C)=O)c1 [CBK304766] | 131.937%
C(=N\Nc1nc2ccccc2[nH]1)/c1cccs1 [CBK025417] | 72.8801%
CC12CN3CCN(CC(C3)C1(O)CN1CCOCC1)C2 (centres unmarked) [CBK263033] | 112.435%
CCOC(=O)COc1ccc2c(=O)c(Oc3ccc([N+](=O)[O-])cc3)c(C)oc2c1C [CBK266092] | 130.886%
CCOC(=O)c1cnc2ccc(OC)cc2c1Nc1ccc(OC)cc1 [CBK095337] | 108.261%
CCc1[nH]ncc1C(=O)N1CCN(c2nccc(OC)n2)CC1 [CBK304915] | 105.869%
O=C(CCn1cnc2ccccc2c1=O)Nc1ccccc1C(F)(F)F [CBK270056] | 105.701%
CC(=O)N1CCC(O)(Cn2c(C3CC3)cc3cccnc32)CC1 [CBK283082] | 106.61%
CC(=O)N1CCc2c([nH]c3cc(F)ccc23)C12CCN(CCC#N)CC2 [CBK039692] | 96.7797%
COc1cc2c(cc1C(C)c1ccc3c(c1)OCO3)OCO2 (centres unmarked) [CBK200107] | 68.1722%
Cc1nnc(SCC(=O)NCc2c(C)c(Cl)cc(C(C)C)c2O)s1 [CBK269662] | 135.554%
COC(=O)COc1nccnc1-c1ccc(C)c(C)c1 [CBK106871] | 135.319%
O=C(c1ccccc1Nc1cccc(C(F)(F)F)c1)N1CCN(c2ccccn2)CC1 [CBK012634] | 89.7668%
Cc1cnc(C(=O)OCc2cc(=O)n3ccsc3n2)cn1 [CBK296978] | 150.681%
O=C1NC2(CCN(C(=O)C(F)(F)F)CC2)Oc2ccccc21 [CBK283906] | 119.19%
O=C(O)CN(c1cccc([N+](=O)[O-])c1)S(=O)(=O)c1ccccc1 [CBK262684] | 129.07%
CC(=O)CCC(=O)N1CCN(C(=O)c2ccc(-c3ccc(S(C)(=O)=O)cc3)cn2)CC1 [CBK160484] | 115.748%
CN1CCCc2ccc(S(=O)(=O)Nc3ccc4nncn4c3)cc21 [CBK306435] | 116.561%
Cn1nccc1C(=O)C1CCN(C(=O)c2cc3c(s2)CCC3)CC1 [CBK284427] | 141.711%

Single values from above:
For % of control remaining, `C(=N\Nc1nc2ccccc2[nH]1)/c1cccs1` [CBK025417] is entered as 72.8801%
For % of control remaining, `CCCC(=O)Nc1ccc(OCc2cnccn2)c(C(C)=O)c1` [CBK304766] is entered as 131.937%
For % of control remaining, `CN1CCCc2ccc(S(=O)(=O)Nc3ccc4nncn4c3)cc21` [CBK306435] is entered as 116.561%

(list continues)

SMILES | % of control remaining
OCCOc1ccccc1-c1cc[nH]n1 [CBK001973] | 71.6916%
Cc1ccc(NC(=O)c2ccc(-c3ccccc3)cc2)c(OC(=O)c2ccc(-c3ccccc3)cc2)c1 [CBK261347] | 127.91%
O/N=C/c1c[nH]c2ccccc12 [CBK168630] | 94.2476%
CN1CCC(C(=O)NC2Cc3ccccc3C2)CC1 [CBK200263] | 146.197%
O=C1CCC(=O)N1CCN1CC(O)CC1c1cc(F)ccc1F (centres unmarked) [CBK306390] | 149.852%
CCOC(=O)CC(=O)N1CCC(c2onc3c2CC(C)CC3)CC1 (centres unmarked) [CBK285187] | 115.768%
COc1ccc(Nc2cc(-c3cc4ccccc4o3)ncn2)c(C)c1 [CBK091040] | 151.589%
O=C(CC1CCCC1)NCCn1nc(-c2ccco2)ccc1=O [CBK283864] | 105.805%
Cc1ccc(C2=CCN(CC(=O)Nc3nccs3)CC2)o1 [CBK283557] | 117.146%
CC1=NN(c2ccccc2F)C(=O)C1 [CBK067773] | 81.5239%
O=C(CSc1nnc(-c2ccncc2)n1-c1ccccc1)N/N=C/c1ccccc1O [CBK262788] | 100%
N#Cc1c(N)ncnc1-c1ccccc1 [CBK102172] | 141.857%
O=C(Nc1nccs1)c1ncoc1-c1cccs1 [CBK283975] | 113.49%
COc1cc(S(=O)(=O)NCCc2ccccc2)c(OC)cc1C [CBK269868] | 100.934%
O=C(NCC1CCCO1)c1ccc2c(c1)C(=O)N(c1ccccc1-c1ccccc1)C2=O (centres unmarked) [CBK262777] | 130.274%
COc1cc(/C=N/Nc2ccc(C(=O)O)cc2)cc(Br)c1O [CBK263318] | 99.0539%
COc1ccc(-c2ccc(CCC(=O)O)n2-c2ccc(N(C)C)cc2)cc1 [CBK131895] | 81.8039%
CC(O)CNc1nccnc1-c1cccc(O)c1 (centres unmarked) [CBK037055] | 201.078%
Cc1cc(C)c(NC(=O)CSc2nnc(Cc3ccccc3)n2C)c(C)c1 [CBK265990] | 108.546%
CCN1CCN(c2ccc(Nc3ccnc4cc5ccccc5cc34)cc2)CC1 [CBK261130] | 103.368%
Cc1onc(-c2ccccc2)c1CNC(=O)c1cncnc1 [CBK144098] | 133.549%
O=C(CCn1cnnn1)N1C[C@H]2CC[C@@H]1CN(Cc1cccnc1)C2 [CBK307029] | 177.267%
CC1(CNC(=O)c2cc(-c3ccc(F)cc3)no2)COC1 [CBK281757] | 148.34%
Cc1cc(C)n2nc(CC(=O)NCCCn3cc(Cl)cn3)nc2n1 [CBK307276] | 151.45%
Cc1nc(CCNC(=O)N(Cc2cnn(C)c2)C2CC2)nc2c1CCC2 [CBK307650] | 153.626%
Cc1ccccc1-c1cncc(C2CCN(C(=O)Cc3c[nH]c4ccccc34)CC2)n1 [CBK286148] | 125.003%
COC(=O)c1c(C)n[nH]c1COc1ccccc1 [CBK057823] | 130.127%

SMILES | % of control remaining
Cn1nc(C(=O)Nc2ccccc2Oc2ccc(F)cc2)ccc1=O [CBK281430] | 135.713%
Cc1noc(C)c1C(=O)Nc1ccc(N2CCOCC2)c2nonc12 [CBK268125] | 113.062%
COc1ccc(C)cc1NC(=O)CCN1CCN(CCO)CC1 [CBK264199] | 119.057%
O=C(NCCCc1ccc(Cl)cc1)c1cc2c([nH]c1=O)CCC2 [CBK281560] | 133.43%
COc1ccccc1Cc1cccc(C2CCN(C(=O)c3ccc(F)cc3)CC2)n1 [CBK286237] | 84.5681%
Cn1c(=O)c2c(ncn2CC(=O)NCCOc2ccccc2)n(C)c1=O [CBK304654] | 110.045%
COc1cccc(CNc2cccc(C(=O)O)c2)c1OCc1ccc(Cl)cc1Cl [CBK074424] | 109.709%
O=C(CN1CCOCC1)Nc1ccc(NC(=O)CN2CCOCC2)c(Cl)c1 [CBK264243] | 107.779%
CN(C)C(=O)C1(Cc2ccccc2-c2ccccc2)CCN(C(=O)c2cccc(F)c2)CC1 [CBK285675] | 108.762%
O=C1c2ccc(S(=O)(=O)c3ccc4c(c3)C(=O)N(CCO)C4=O)cc2C(=O)N1CCO [CBK023065] | 97.5824%
NC(=O)C1CN(C(=O)CN2CCCc3ccccc32)c2ccccc2O1 (centres unmarked) [CBK295163] | 172.474%
NC(=O)c1nc(-c2ccco2)nc2c1[nH]c(=O)n2-c1ccc(Cl)cc1 [CBK287545] | 147.219%
O=C(CN1C(=O)[C@H]2CCCN2c2ncccc21)NCCc1c[nH]c2ccccc12 [CBK286206] | 86.0462%
COc1ccc2c(c1OC)C(=O)N1C2SC(C)(C)C1C(=O)O (centres unmarked) [CBK011479] | 122.857%
CCOc1ccc(-c2nc(-c3cccc(NC(=O)c4ccccc4C(=O)O)c3)no2)cc1 [CBK299832] | 119.458%
CSCCC(NC(=O)c1c(C)oc2c1CCCC2)C(=O)O (centres unmarked) [CBK264029] | 100%
CC(C)(C)NCC(O)COc1ccc(Cl)cc1Cl (centres unmarked) [CBK025597C] | 96.1665%
CN1CCCC1CNCc1cn(-c2ccccc2)nc1-c1cccnc1 (centres unmarked) [CBK304490] | 67.371%
Cc1csc(NC(=O)CN2CCC(c3ccccc3F)CC2)n1 [CBK283569] | 72.234%
Nc1ncc(-c2ccc(C(=O)N3CCOCC3)cc2)nc1-c1ccc(CCC(=O)O)cc1 [CBK126368] | 95.5747%
COc1ccc(S(=O)(=O)NC(C)C(=O)NCc2ccncc2)cc1C (centres unmarked) [CBK269347] | 82.5626%
Cn1cnc(S(=O)(=O)N2CCC(C(=O)NC(c3ccccn3)c3cccs3)CC2)c1 (centres unmarked) [CBK060131] | 93.7563%
O=C1Nc2cc(Cl)ccc2C(=O)N2CC[C@H](NS(=O)(=O)c3cccs3)[C@@H]12 [CBK289341] | 105.042%
COc1ccc(C(=O)Nc2ccc(S(=O)(=O)N3CCN(C)CC3)cc2)cc1 [CBK267622] | 121.978%
COc1ccc(/C=C(/C#N)C(=O)Nc2cccc(C)c2C)cc1C(=O)O [CBK262751] | 121.658%
Cc1c(C(=O)N2CCCCC2)sc2nc(C(F)(F)F)nn12 [CBK006455] | 98.1861%
